PubChem BioAssay AID504804 | Drosophila RNAi Screening Center – 2011
Test: 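Knock-downs shielding fly cells from apoptosis caused by DNA damage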 (primary screen). Cells: Drosophila Kc cells. Reagents: long dsRNA against Drosophila genes, 0.5 µg dsRNA per well. Time to read-out: 96 h (48 h knock-down, then 48 h drug). Conditions: doxorubicin 5 µg/ml for 48 h, added 48 h after dsRNA. Detection: 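Viability measured as cellular ATP by luminescence after 48 h knock-down then 48 h doxorubicin at 5 µg/ml; unnormalised plate counts for each replicate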. Direction: raw ATP luminescence: higher = more viable cells, protection from doxorubicin. Rule for the call: 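z-score of 2 or more over plate mean in both duplicates, retained only when retests and separate dsRNAs confirm the protection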.
In all, the deposit lists about 19,000 reagents; shown is an unselected part of those with a known target gene and a result. In the full data, 47 (0.25%) are marked active. 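Signals are raw, not normalised; exact z-scores behind calls not deposited; actives needed confirmation, so some wells reaching 2 SD are inactive.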 A plus sign joins genes that one reagent is predicted to hit.

target gene | amplicon | SD above plate mean | raw ATP luminescence, replicate 1 | raw ATP luminescence, replicate 2 | outcome
Osi1 | DRSC12271 | – | 78090 | 67517 | inactive
CG2104 | DRSC12304 | – | 71930 | 61180 | inactive
CG30338 | DRSC05166 | – | 93307 | 1.14e5 | inactive
CG34050 (retired record) | DRSC09067 | – | 22673 | 27237 | inactive
CG32447 | DRSC11732 | – | 27340 | 22683 | inactive
CG32447 | DRSC11805 | – | 66023 | 70997 | inactive
CG10864 | DRSC14273 | – | 47940 | 72020 | inactive
Snx27 | DRSC17786 | – | 32210 | 47750 | inactive
Snx27 | DRSC18282 | – | 40720 | 41570 | inactive
Snx27 | DRSC18284 | – | 37170 | 48440 | inactive
CG6415 | DRSC02954 | – | 71307 | 48613 | inactive
Tg | DRSC03047 | – | 37037 | 52087 | inactive
Jheh3 | DRSC06533 | – | 89723 | 59727 | inactive
CG42758 | DRSC10021 | – | 65087 | 54423 | inactive
CG6660 | DRSC16087 | – | 51383 | 65983 | inactive
CG12934 | DRSC06247 | – | 28703 | 50737 | inactive
CG9993 | DRSC04599 | – | 54757 | 59250 | inactive
CG34268 | DRSC07874 | – | 1.45e5 | 1.43e5 | inactive
boil | DRSC17872 | – | 52460 | 64130 | inactive
Tsp42Eo | DRSC06184 | – | 49577 | 75247 | inactive
Acyp | DRSC01861 | – | 65500 | 73053 | inactive
Arl8 | DRSC16334 | – | 74843 | 77047 | inactive
CG10589 | DRSC11629 | – | 57210 | 58157 | inactive
CG3655 | DRSC17676 | – | 3.09e5 | 2.86e5 | inactive
CG3655 | DRSC18181 | – | 44140 | 51930 | inactive
CG3655 | DRSC18477 | – | 50330 | 77980 | inactive
Amt | DRSC16055 | – | 73650 | 67760 | inactive
TrissinR | DRSC02334 | – | 25443 | 29513 | inactive
TrissinR | DRSC02335 | – | 24270 | 23207 | inactive
TrissinR | DRSC02336 | – | 29513 | 27523 | inactive
dpr8 | DRSC19406 | – | 3.61e5 | 3.35e5 | inactive
dpr8 | DRSC19600 | – | 3.35e5 | 3.31e5 | inactive
dpr8 | DRSC19938 | – | 3.77e5 | 3.54e5 | inactive
dpr8 | DRSC19939 | – | 3.85e5 | 3.63e5 | inactive
Jon65Aii | DRSC10665 | – | 72643 | 62493 | inactive
CG31675 | DRSC01825 | – | 74087 | 81167 | inactive
CG9294 | DRSC04537 | – | 72573 | 71353 | inactive
yellow-h | DRSC17141 | – | 50040 | 64720 | inactive
CG42445 | DRSC10858 | – | 30840 | 33350 | inactive
CR42745 (retired record) | DRSC13756 | – | 2.73e5 | 2.73e5 | inactive
CG15564 | DRSC15102 | – | 60510 | 64250 | inactive
hbn | DRSC04082 | – | 20467 | 28613 | inactive
hbn | DRSC04238 | – | 67727 | 52170 | inactive
hbn | DRSC04239 | – | 51497 | 58140 | inactive
CG8584 | DRSC07217 | – | 47867 | 80800 | inactive
sqz | DRSC16980 | – | 76440 | 70890 | inactive
Obp83g | DRSC12269 | – | 67990 | 63823 | inactive
CG42827 + CG42828 | DRSC16116 | – | 58680 | 56540 | inactive
Idgf6 | DRSC07360 | – | 57157 | 69233 | inactive
CAH15 | DRSC04534 | – | 47397 | 48787 | inactive

As entered above.
Entry for Tsp42Eo [DRSC06184] under “raw ATP luminescence, replicate 2”: 75247
For “outcome”, Amt [DRSC16055] shows inactive
Under “raw ATP luminescence, replicate 1”, CG31675 [DRSC01825] is entered as 74087
Under “raw ATP luminescence, replicate 1”, Acyp [DRSC01861] is entered as 65500

Continued.
target gene | amplicon | SD above plate mean | raw ATP luminescence, replicate 1 | raw ATP luminescence, replicate 2 | outcome
CG32040 | DRSC08981 | – | 1.55e5 | 1.87e5 | inactive
DZIP1 | DRSC14620 | – | 75640 | 53740 | inactive
Elp4 | DRSC02999 | – | 25673 | 28393 | inactive
Rcd-1 | DRSC19569 | – | 2.03e5 | 2.24e5 | inactive
pdm2 | DRSC02496 | – | 69253 | 73987 | inactive
pdm2 | DRSC02497 | – | 64193 | 79670 | inactive
pdm2 | DRSC03587 | – | 78730 | 76573 | inactive
mTor | DRSC02811 | – | 96547 | 63280 | inactive
RhoGAP68F | DRSC10717 | – | 45953 | 44137 | inactive
hydra | DRSC20497 | – | 3.06e5 | 3.32e5 | inactive
Su(var)3-7 | DRSC16872 | – | 74780 | 63650 | inactive
stum | DRSC04268 | – | 56863 | 63543 | inactive
stum | DRSC04270 | – | 55340 | 52350 | inactive
2mit | DRSC14194 | – | 63060 | 60080 | inactive
2mit | DRSC15224 | – | 62580 | 64050 | inactive
Rlip | DRSC16828 | – | 60030 | 55780 | inactive
tsr | DRSC04718 | – | 48410 | 51187 | inactive
m-cup | DRSC14430 | – | 72310 | 77970 | inactive
Octalpha2R | DRSC13319 | – | 2.46e5 | 2.42e5 | inactive
Octalpha2R | DRSC15314 | – | 15560 | 19830 | inactive
mah | DRSC14645 | – | 75060 | 84720 | inactive
CG40498 | DRSC07786 | – | 1.90e5 | 1.38e5 | inactive
CG33267 | DRSC09120 | – | 1.90e5 | 1.85e5 | inactive
Sdb | DRSC06272 | at least 2 SD above plate mean | – | – | active
Sdb | DRSC07155 | – | 79043 | 52123 | inactive
Larp7 | DRSC18798 | – | 2.88e5 | 2.44e5 | inactive
CG34006 (retired record) | DRSC13817 | – | 2.83e5 | 2.57e5 | inactive
CG6304 | DRSC02948 | – | 46407 | 76517 | inactive
Osi15 | DRSC12178 | – | 76200 | 50280 | inactive
dgt3 | DRSC04349 | – | 63680 | 65577 | inactive
CG8219 | DRSC10971 | – | 87567 | 85537 | inactive
dila | DRSC06607 | – | 48413 | 98180 | inactive
CG31077 | DRSC13805 | – | 1.84e5 | 1.74e5 | inactive
GstT1 | DRSC06243 | – | 43493 | 68363 | inactive
